Measured values: publication PMC11530239
These are yes or no findings as the source states them, for the method shown. In cells and extracts the contact can be indirect. Some results given as binding are weak or reduced against the parent protein; the word gives no strength.

Chains of the proteins cited; added tags and fusions are not shown.
UniProt Q9NPJ4: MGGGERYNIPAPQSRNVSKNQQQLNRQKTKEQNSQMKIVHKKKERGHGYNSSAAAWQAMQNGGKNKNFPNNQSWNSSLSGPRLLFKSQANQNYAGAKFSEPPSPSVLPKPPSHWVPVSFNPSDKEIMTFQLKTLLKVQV
UniProt Q12796: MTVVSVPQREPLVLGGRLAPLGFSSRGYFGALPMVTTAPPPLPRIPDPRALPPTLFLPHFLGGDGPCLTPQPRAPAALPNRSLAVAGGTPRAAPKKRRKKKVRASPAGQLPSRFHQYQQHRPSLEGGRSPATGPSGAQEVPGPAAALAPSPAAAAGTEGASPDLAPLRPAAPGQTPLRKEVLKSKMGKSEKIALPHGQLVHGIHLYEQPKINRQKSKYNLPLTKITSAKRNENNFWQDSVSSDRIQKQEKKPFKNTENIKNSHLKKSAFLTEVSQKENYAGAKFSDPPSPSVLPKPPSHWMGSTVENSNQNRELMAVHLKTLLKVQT

Assays:
GFP-tagged DCP2 (human) = GFP-tagged DCP2 (human) (UniProt Q8IU60); test: co-IP; GFP-DCP2 with HA-PNRC1 or V5-tagged PNRC2 in HEK-293T wild-type or DCP1a/b-knockout cells; immunoprecipitated with anti-GFP antibodies; RNase A; NET buffer; western blot
[1] = target: V5-Streptavidin-Binding Peptide (SBP)-DCP2 (human) (UniProt Q8IU60); test: pull-down; as a1, but V5-SBP-DCP2 expressed in DCP1a/b-null HEK-293T cells (no DCP1a, no DCP1b); streptavidin beads; RNase A; western blot of endogenous decapping factors
[2] = target: V5-Streptavidin-Binding Peptide (SBP)-DCP2 (human) (UniProt Q8IU60); test: pull-down; V5-SBP-DCP2 expressed in HEK-293T wild-type cells (for EDC4 also DCP1a/b-null cells), purified on streptavidin beads; endogenous decapping factors detected by western blot; RNase A added to the cell extract; NET buffer (50 mM Tris-HCl pH 7.5, 150 mM NaCl, 1 mM EDTA, 0.1% Triton-X-100, 10% glycerol)

binding (GFP-tagged DCP2 (human))	binding [1]	Molecule	other results
binds		V5-tagged PNRC2 (from UniProt Q9NPJ4 1-139)	
binds		HA-tagged PNRC1 (from UniProt Q12796 1-327)	
	binds weakly	PatL1 (protein, UniProt Q86TB9 1-770) MFRYESLEDCPLDEDEDAFQGLGEEDEEIDQFNDDTFGSGAVDDDWQEAHERLAELEEKLPVAVNEQTGNGERDEMDLLGDHEENLAERLSKMVIENELEDPAIMRAVQTRPVLQPQPGSLNSSIWDGSEVLRRIRGPLLAQEMPTVSVLEYALPQRPPQGPEDDRDLSERALPRRSTSPIIGSPPVRAVPIGTPPKQMAVPSFTQQILCPKPVHVRPPMPPRYPAPYGERMSPNQLCSVPNSSLLGHPFPPSVPPVLSPLQRAQLLGGAQLQPGRMSPSQFARVPGFVGSPLAAMNPKLLQGRVGQMLPPAPGFRAFFSAPPSATPPPQQHPPGPGPHLQNLRSQAPMFRPDTTHLHPQHRRLLHQRQQQNRSQHRNLNGAGDRGSHRSSHQDHLRKDPYANLMLQREKDWVSKIQMMQLQSTDPYLDDFYYQNYFEKLEKLSAAEEIQGDGPKKERTKLITPQVAKLEHAYKPVQFEGSLGKLTVSSVNNPRKMIDAVVTSRSEDDETKEKQVRDKRRKTLVIIEKTYSLLLDVEDYERRYLLSLEEERPALMDDRKHKICSMYDNLRGKLPGQERPSDDHFVQIMCIRKGKRMVARILPFLSTEQAADILMTTARNLPFLIKKDAQDEVLPCLLSPFSLLLYHLPSVSITSLLRQLMNLPQSAATPALSNPHLTAVLQNKFGLSLLLILLSRGEDLQSSDPATESTQNNQWTEVMFMATRELLRIPQAALAKPISIPTNLVSLFSRYVDRQKLNLLETKLQLVQGIR	
	binds weakly	EDC3 (protein, UniProt Q96F86 1-508) MATDWLGSIVSINCGDSLGVYQGRVSAVDQVSQTISLTRPFHNGVKCLVPEVTFRAGDITELKILEIPGPGDNQHFGDLHQTELGPSGAGCQVGINQNGTGKFVKKPASSSSAPQNIPKRTDVKSQDVAVSPQQQQCSKSYVDRHMESLSQSKSFRRRHNSWSSSSRHPNQATPKKSGLKNGQMKNKDDECFGDDIEEIPDTDFDFEGNLALFDKAAVFEEIDTYERRSGTRSRGIPNERPTRYRHDENILESEPIVYRRIIVPHNVSKEFCTDSGLVVPSISYELHKKLLSVAEKHGLTLERRLEMTGVCASQMALTLLGGPNRLNPKNVHQRPTVALLCGPHVKGAQGISCGRHLANHDVQVILFLPNFVKMLESITNELSLFSKTQGQQVSSLKDLPTSPVDLVINCLDCPENVFLRDQPWYKAAVAWANQNRAPVLSIDPPVHEVEQGIDAKWSLALGLPLPLGEHAGRIYLCDIGIPQQVFQEVGINYHSPFGCKFVIPLHSA	
		EDC4 (protein, UniProt Q6P2E9 1-1401) MASCASIDIEDATQHLRDILKLDRPAGGPSAESPRPSSAYNGDLNGLLVPDPLCSGDSTSANKTGLRTMPPINLQEKQVICLSGDDSSTCIGILAKEVEIVASSDSSISSKARGSNKVKIQPVAKYDWEQKYYYGNLIAVSNSFLAYAIRAANNGSAMVRVISVSTSERTLLKGFTGSVADLAFAHLNSPQLACLDEAGNLFVWRLALVNGKIQEEILVHIRQPEGTPLNHFRRIIWCPFIPEESEDCCEESSPTVALLHEDRAEVWDLDMLRSSHSTWPVDVSQIKQGFIVVKGHSTCLSEGALSPDGTVLATASHDGYVKFWQIYIEGQDEPRCLHEWKPHDGRPLSCLLFCDNHKKQDPDVPFWRFLITGADQNRELKMWCTVSWTCLQTIRFSPDIFSSVSVPPSLKVCLDLSAEYLILSDVQRKVLYVMELLQNQEEGHACFSSISEFLLTHPVLSFGIQVVSRCRLRHTEVLPAEEENDSLGADGTHGAGAMESAAGVLIKLFCVHTKALQDVQIRFQPQLNPDVVAPLPTHTAHEDFTFGESRPELGSEGLGSAAHGSQPDLRRIVELPAPADFLSLSSETKPKLMTPDAFMTPSASLQQITASPSSSSSGSSSSSSSSSSSLTAVSAMSSTSAVDPSLTRPPEELTLSPKLQLDGSLTMSSSGSLQASPRGLLPGLLPAPADKLTPKGPGQVPTATSALSLELQEVEPLGLPQASPSRTRSPDVISSASTALSQDIPEIASEALSRGFGSSAPEGLEPDSMASAASALHLLSPRPRPGPELGPQLGLDGGPGDGDRHNTPSLLEAALTQEASTPDSQVWPTAPDITRETCSTLAESPRNGLQEKHKSLAFHRPPYHLLQQRDSQDASAEQSDHDDEVASLASASGGFGTKVPAPRLPAKDWKTKGSPRTSPKLKRKSKKDDGDAAMGSRLTEHQVAEPPEDWPALIWQQQRELAELRHSQEELLQRLCTQLEGLQSTVTGHVERALETRHEQEQRRLERALAEGQQRGGQLQEQLTQQLSQALSSAVAGRLERSIRDEIKKTVPPCVSRSLEPMAGQLSNSVATKLTAVEGSMKENISKLLKSKNLTDAIARAAADTLQGPMQAAYREAFQSVVLPAFEKSCQAMFQQINDSFRLGTQEYLQQLESHMKSRKAREQEAREPVLAQLRGLVSTLQSATEQMAATVAGSVRAEVQHQLHVAVGSLQESILAQVQRIVKGEVSVALKEQQAAVTSSIMQAMRSAAGTPVPSAHLDCQAQQAHILQLLQQGHLNQAFQQALTAADLNLVLYVCETVDPAQVFGQPPCPLSQPVLLSLIQQLASDLGTRTDLKLSYLEEAVMHLDHSDPITRDHMGSVMAQVRQKLFQFLQAEPHNSLGKAARRLSLMLHGLVTPSLP	binding [2]: binds
